From article PMC6853982
Results are given in words; binding and its absence hold for the method and conditions named. Binding seen in cells or lysates may run through a third protein. Some entries that bind do so weakly or less than the wild type. Tags and fused reporters may be left off the sequences shown.

Amino acid sequences for entries named in this document (tags omitted).
UniProt Q9SAF1: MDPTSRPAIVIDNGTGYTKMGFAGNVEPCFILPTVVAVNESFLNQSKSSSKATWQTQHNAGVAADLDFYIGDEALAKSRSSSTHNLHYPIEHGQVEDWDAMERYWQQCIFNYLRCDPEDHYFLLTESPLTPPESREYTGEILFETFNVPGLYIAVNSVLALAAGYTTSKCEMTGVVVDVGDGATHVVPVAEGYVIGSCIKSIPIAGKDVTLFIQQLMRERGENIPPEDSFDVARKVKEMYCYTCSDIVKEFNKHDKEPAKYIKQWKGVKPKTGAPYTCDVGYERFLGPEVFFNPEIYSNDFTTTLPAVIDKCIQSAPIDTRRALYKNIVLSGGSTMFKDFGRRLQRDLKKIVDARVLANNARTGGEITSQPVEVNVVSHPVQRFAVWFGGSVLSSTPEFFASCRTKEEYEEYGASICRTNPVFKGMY

T1: GFP-AtEH1/Pan1 T1 (Arabidopsis) (UniProt Q9LM78)
T1 sequence: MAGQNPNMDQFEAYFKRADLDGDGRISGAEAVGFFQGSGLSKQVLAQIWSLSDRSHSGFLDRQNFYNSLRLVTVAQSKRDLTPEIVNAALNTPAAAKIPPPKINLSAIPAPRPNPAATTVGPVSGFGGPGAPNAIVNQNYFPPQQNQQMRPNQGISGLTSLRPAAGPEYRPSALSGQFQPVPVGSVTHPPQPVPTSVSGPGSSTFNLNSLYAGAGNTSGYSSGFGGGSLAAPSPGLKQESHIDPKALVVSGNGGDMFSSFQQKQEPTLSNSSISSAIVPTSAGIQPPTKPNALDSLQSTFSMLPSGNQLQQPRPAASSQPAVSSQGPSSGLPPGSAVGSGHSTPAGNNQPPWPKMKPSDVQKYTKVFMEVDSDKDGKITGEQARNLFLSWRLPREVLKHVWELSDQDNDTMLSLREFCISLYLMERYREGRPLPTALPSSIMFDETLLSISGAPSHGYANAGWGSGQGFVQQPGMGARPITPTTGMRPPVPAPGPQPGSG

T2: GFP-AtEH1/Pan1 (Arabidopsis) (UniProt Q9LM78)
T2 sequence: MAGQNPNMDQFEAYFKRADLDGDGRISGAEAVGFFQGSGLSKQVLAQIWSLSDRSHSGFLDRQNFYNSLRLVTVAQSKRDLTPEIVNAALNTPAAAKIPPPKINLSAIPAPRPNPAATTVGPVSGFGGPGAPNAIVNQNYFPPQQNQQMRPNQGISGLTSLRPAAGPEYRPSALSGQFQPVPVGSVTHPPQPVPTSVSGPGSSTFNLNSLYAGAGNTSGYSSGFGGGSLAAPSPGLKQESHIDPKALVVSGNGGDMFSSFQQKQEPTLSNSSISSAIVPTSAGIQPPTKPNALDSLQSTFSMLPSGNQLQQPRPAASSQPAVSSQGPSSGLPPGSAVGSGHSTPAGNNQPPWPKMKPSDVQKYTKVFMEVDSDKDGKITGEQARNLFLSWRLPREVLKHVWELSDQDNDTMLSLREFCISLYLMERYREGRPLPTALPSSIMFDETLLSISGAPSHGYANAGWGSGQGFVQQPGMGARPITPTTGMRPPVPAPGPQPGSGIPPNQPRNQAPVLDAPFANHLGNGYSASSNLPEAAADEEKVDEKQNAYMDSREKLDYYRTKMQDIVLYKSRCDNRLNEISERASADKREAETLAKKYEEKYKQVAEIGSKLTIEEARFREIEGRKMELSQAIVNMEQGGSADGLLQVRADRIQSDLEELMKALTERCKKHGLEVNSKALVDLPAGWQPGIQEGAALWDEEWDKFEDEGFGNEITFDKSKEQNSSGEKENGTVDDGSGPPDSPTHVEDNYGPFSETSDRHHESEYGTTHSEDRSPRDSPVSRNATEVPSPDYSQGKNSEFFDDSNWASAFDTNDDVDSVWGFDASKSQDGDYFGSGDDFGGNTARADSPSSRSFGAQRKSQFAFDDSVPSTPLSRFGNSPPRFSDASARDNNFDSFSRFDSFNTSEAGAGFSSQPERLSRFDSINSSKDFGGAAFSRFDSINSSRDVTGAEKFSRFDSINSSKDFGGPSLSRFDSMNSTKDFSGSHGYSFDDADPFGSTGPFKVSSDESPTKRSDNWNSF

B1: RFP-VAP27-1 (protein, UniProt Q8VZ95 1-256)
chain: MSNIDLIGMSNRDLIGMSNSELLTVEPLDLQFPFELKKQISCSLYLTNKTDNNVAFKVKTTNPKKYCVRPNTGVVLPRSTCEVLVTMQAQKEAPSDMQCKDKFLLQGVIASPGVTAKEVTPEMFSKEAGHRVEETKLRVTYVAPPRPPSPVHEGSEEGSSPRASVSDNGHGSEFSFERFIVDNKAGHQENTSEARALITKLTEEKQSAIQLNNRLQRELDQLRRESKKSQSGGIPFMYVLLVGLIGLILGYIMKRT

Columns and labels:
[1] = biological target: T1, GFP-AtEH1/Pan1 T1 (Arabidopsis); assay: FRET or BRET; FRET-FLIM in N. benthamiana leaf cells transiently co-expressing the GFP donor and RFP acceptor fusions; GFP-AtEH1/Pan1 alone as donor control; whole field images
[2] = biological target: T2, GFP-AtEH1/Pan1 (Arabidopsis); assay: co-IP; GFP-Trap_A beads on N. benthamiana leaf extract (10 mM Tris-HCl pH 7.5, 150 mM NaCl, 0.5 mM EDTA, 0.5% Triton-X100), 2 h on ice; supernatant and pellet analysed by western blot

Molecule	binding [1]	binding [2]
RFP-ARP3 (from UniProt Q9SAF1 1-427)	no binding	
B1		binds
